Binding data for one molecule are collected here from US20260098096A1.

Protein sequences, listed by entry. Tags and fused reporters are not part of them. Lines headed by an entry give the natural chain unless they say otherwise; changes in a name come on top.
UniProt P51685: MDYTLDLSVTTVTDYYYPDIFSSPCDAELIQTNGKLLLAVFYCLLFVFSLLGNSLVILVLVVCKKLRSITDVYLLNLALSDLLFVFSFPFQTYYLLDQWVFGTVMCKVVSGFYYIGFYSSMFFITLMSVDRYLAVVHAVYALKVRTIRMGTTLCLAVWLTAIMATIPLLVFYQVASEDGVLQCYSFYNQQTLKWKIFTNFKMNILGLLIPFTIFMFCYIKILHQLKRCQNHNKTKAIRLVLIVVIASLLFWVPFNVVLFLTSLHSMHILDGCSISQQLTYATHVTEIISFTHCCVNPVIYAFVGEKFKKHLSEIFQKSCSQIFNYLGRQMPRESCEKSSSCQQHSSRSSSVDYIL

These are yes or no findings as the source states them, for the method shown. Some entries that bind do so weakly or less than the wild type.

For the experiment, the target named is Human CCR8 (human) (UniProt P51685). As to the kind of experiment: flow cytometry on hCCR8-L1.2 transfected cells. In general terms: Flow cytometry measures light scatter and fluorescence of single cells or particles in a stream.

B1: Chimeric 2H8 (antibody, human IgG1, kappa, V domains shown)
VH: EVQLQQSGPELVKPGASVKMSCKASGYTFTDYNMHWVKQSHGKSLEWIGYVNPNNGGTSYNQKFKGKATLTVNKSSSTAYMELRSLTSEDSAVYYCARWVLRRNFAYWGQGTLVTVSA
VL: DIVMTQSHKFMSTSVGDRVSITCKASQDVNTAVAWYQQKPGQSPKLLIYWASTRHTGVPDRFTGSGSGTDYTLTISSVQAEDLALYYCQQHYRNPYTFGGGTKLEIKR
Take B1: the binding entry is given as “binds”.
